# Screening data, single-dose tests

From ChEMBL document CHEMBL3988442, “University of Dundee, Small-Polar-MMV Screening Library” (2021).

Results are given as percent effect. The record does not define 0% and 100%; most values in the screen are far below 50% and negative numbers occur (in some assays of this library far below -100). The compounds are a random part of those screened. Two or more numbers in one place are separate tests of the same structure; such repeats can differ widely.

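Cell assay of Leishmania donovani living inside macrophages; the read-out is not stated. Concentration: 30 µM. Direction is inferred from retests: higher values go with stronger inhibition. Of about 69,000 compounds tested this way, about 1,000 (1.5%) reached 50% or more in at least one test.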

Compound	effect
Cc1ccc(S(=O)(=O)N2CCOc3ccccc32)cc1C(=O)O	27.96%
CSc1ccccc1C(=O)NCc1cc2n(n1)CCCN(CC(C)C)C2	-26.56%
O=C(NC1CC1)N(CCc1ccccc1)C1CCOC1 (centres unmarked)	-5.676%
Cc1cc(CN(Cc2cccs2)CC2CCCO2)on1 (centres unmarked)	-25.9%
Cc1cc(NC(=O)N2CCOCC2)nn1-c1ccccc1Cl	14.22%
COc1cc(F)c(C(=O)NCc2cc(C)on2)c(F)c1	-22.91%
CCCS(=O)(=O)N(C)C(=O)CCc1ccccc1	26.08%
O=C(c1cccs1)N1CCCn2cnc(COCC3CC3)c2C1	42.67%
N#Cc1cccc(OCC(=O)N(Cc2ccncc2)C2CC2)c1	6.909%
Cc1cccc2[nH]c(C3CCN(C(=O)c4c[nH]c(=O)[nH]c4=O)CC3)nc12	22.52%
COc1nn(C)c2c1CCCN(C(=O)c1cscn1)C2	0.1905%
CCc1nc(CN2CCN(c3ncnc4cc(F)ccc34)CC2)no1	-0.797%
COc1ccccc1C(C)(C)NC(=O)Nc1ccc(F)c(C(N)=O)c1	23.99%
CCN(CC)C(=O)CSc1nnc(CCNC(=O)OC(C)(C)C)o1	11.6%
Cc1nonc1CN(C)c1nc(-c2cccnc2)nc2c1CCNC2	13.91%
Cn1cc(Br)c(C(=O)NCCCn2cc(Br)cn2)n1	-5.348%
CN(C)CCNc1cc(-c2ncccn2)c2cc[nH]c2n1	4.01%
Cc1cnn(C2CCCN(C(=O)c3ccc(N4CCCC4)nn3)C2)c1 (centres unmarked)	-25.47%
CN(C)c1ccc(C(=O)Nc2ccn(CC(N)=O)n2)cn1	7.61%
CCC(CNC(=O)c1cncc(Br)c1)N1CCc2ccccc2C1 (centres unmarked)	20.54%
Fc1ccc(C2(NCc3noc(C4CC4)n3)CCC2)cc1	-18.09%
COc1cccc2c1OCC(NCc1cnn(-c3ccccc3F)c1)C2 (centres unmarked)	10.81%
Cc1cc(C)c(C(=O)NC2CCCc3nc(N(C)C)ncc32)cc1C (centres unmarked)	-2.432%
CNc1cccc(C2CCCN(C(=O)c3ccn(C)n3)C2)n1 (centres unmarked)	0.418% & 10.83%
Cn1c(NCC(O)c2ccc(F)cc2)c(C#N)c(=O)n(C)c1=O (centres unmarked)	10.87%
Cc1cnc(C(=O)N2CCCC(n3nc(C)nc3C)C2)cn1 (centres unmarked)	12.33%
Cc1nn(C)c(C)c1C1CCCN1Cc1nc(-c2cccs2)no1 (centres unmarked)	34.89%
Cc1cccc(N2CCN(CC(=O)N3CCCC(N(C)C)CC3)CC2)c1 (centres unmarked)	28.57%
O=C(NC1CC1)N1CCc2ncnc(-c3ccncc3)c2CC1.O=C(O)C(F)(F)F	-12.61%
[H][C@@]12C[C@H](C(=O)NCC(C)C)[C@@]([H])(CN(C(=O)Nc3ccc(F)cc3)C1)O2	29.03%
CCc1nnc(C2Cc3ccccc3CN2Cc2nc(C)no2)o1 (centres unmarked)	-4.747%
Cn1cc(CCN2CCOC(CNc3cccnn3)C2)cn1 (centres unmarked)	17.54%
Fc1cccnc1N1CCOCC2(CCCNC2)C1 (centres unmarked)	11.49%
Cc1ccc(C)c(NC(=O)N2CCC3(CC2)NC(=O)CC3C(=O)O)c1 (centres unmarked)	40.74%
Cc1cccc(NC(=O)CNC(=O)c2ccccc2F)c1	-11.93%
COCc1nc(C(=O)N2CCCC(n3cccn3)C2)cs1 (centres unmarked)	19.09%
O=C(NCc1ccoc1)Nc1ccc(CN2CCOC2=O)cc1	-50.96%
[H][C@@]12CN(Cc3scnc3C)C[C@@H](C(=O)NCC3CC3)[C@]1([H])CCO2	37.41%
CN(C)Cc1nn(C)c2c1CCN(C(=O)CC1CC1)C2.O=C(O)C(F)(F)F	-14.39%
CC[C@@]1(O)CCN(C(=O)CCNC(=O)c2ccc(F)cc2)C[C@H]1O	32.65%
Cc1c(Cl)cccc1NC(=O)Cn1cc(C(=O)O)ccc1=O	21.16%
CC(C)(NC(=O)Cc1ccccc1F)C(C)(C)C(=O)O	26.77%
CC(=O)NC[C@@]1(COc2cnccn2)C[C@@H](O)[C@@H](O)C1.Cl	26.62%
CNC(=O)c1cc2c(nc1N(C)C)CCN(S(=O)(=O)N(C)C)CC2.O=C(O)C(F)(F)F	21.56%
CCN(Cc1cccc2c1OCO2)C(=O)Nc1cn[nH]c1	15.24%
CCN1CC2(CCC1=O)CCN(c1ccc(C(C)=O)cn1)CC2	5.662%
CC(Cn1cccn1)NC(=O)N1CCN(Cc2ccsc2)CC1 (centres unmarked)	0.9675%
Cc1ccc(-c2nc(CN3CCn4c(C)nnc4C3)co2)cc1	-10.53%
O=C(O)C(F)(F)F.[H][C@@]12COC[C@@H](C(=O)N3CCCCO3)[C@]1([H])CN(Cc1cc(C)c(C)o1)C2	43.36%
O=C(NCc1ccncc1)c1ccc(Cl)cc1F	0.01653%
CC1=NOC2(CCN(Cc3c[nH]c4ccccc34)CC2)C1	4.748%
[H][C@@]12CCCO[C@]1([H])[C@H](N(CC)CC)CN2S(=O)(=O)c1cn(C)cn1	26.81%
CC(C)N1CCCC(Cc2cncc(Br)c2)CC1 (centres unmarked)	23.95% & -3.902%
CCS(=O)(=O)NCc1cccnc1N1CCCC(O)C1 (centres unmarked)	-23.11%
COCC1CN(Cc2ccoc2)Cc2nnn(C)c21.O=C(O)C(F)(F)F (centres unmarked)	17.1%
CC(C)c1nc(O)c2nnn(C[C@H]3CCCN(Cc4cccs4)C3)c2n1	3.318%
COc1ccc(S(=O)(=O)NCCCc2ccc(N(C)C)cc2)cc1Cl	33.31% & 43.12%
CCOC(=O)N1CCC(NC(C)c2ccccc2-n2cccn2)CC1 (centres unmarked)	-1.418%
CC(=O)N1CCN(c2cc(N(C)C)cnn2)CC1	-6.091% & -1.789%
CCc1cnc(N2CCOC(CCOC)C2)nc1 (centres unmarked)	15.84%
[H][C@@]12COC[C@@H](Cc3nc(C)no3)[C@]1([H])CN(S(C)(=O)=O)C2	17.73%
Cc1cc(NCC(=O)N(C)C)c(C(N)=O)cc1F	21.95%
CC1CN(C(=O)NCCc2nc(C(C)C)no2)CCO1 (centres unmarked)	13.71%
Cc1ncc(-c2ccncc2)c(C2CCCN(C(=O)c3ccno3)C2)n1 (centres unmarked)	16.97%
COCCn1ccnc1C1CCCN(C(=O)c2cccnc2SC)C1 (centres unmarked)	-18.69%
CC(C)C(C(=O)N1CCN(Cc2ccccn2)CC1)n1cncn1 (centres unmarked)	-14.83%
COc1ccsc1C(=O)NCCNc1ccccc1	21.1%
Cc1cc(C2CCCN(CCCS(=O)(=O)c3ccccc3)C2)n[nH]1 (centres unmarked)	18.49%
COc1ccccc1CN1CCCC(Cc2nccnc2N)C1 (centres unmarked)	21.39%
Cc1cnn(CCNC(C)C(=O)Nc2ccc(Cl)cn2)c1 (centres unmarked)	0.8916%
CCN1CCC2(C=C(C(=O)N(C)C)c3ccccc32)CC1.O=C(O)C(F)(F)F	51.51%
Cc1cnc(C(=O)N2CCCCC2c2[nH]ncc2S(C)(=O)=O)cn1 (centres unmarked)	-6.312%
Cc1nnc(CN2CCCC2c2ccc(Cl)c(Cl)c2)o1 (centres unmarked)	32.89%
Cc1nc(CN2CCC3(CCN(Cc4nccn4C)CC3)C2=O)cs1.O=C(O)C(F)(F)F.O=C(O)C(F)(F)F	19.09%
[H][C@@]12COC[C@]1(c1nnc(C3CC3)o1)CN(C(=O)N(C)C)C2	12.81%
CCc1nc2c(NCC3COc4c(cccc4OC)C3)ncnc2o1 (centres unmarked)	45.88%
Cc1ccc(CCNC(=O)N2CCCC(Cc3nccn3C)C2)cn1 (centres unmarked)	22.59%

4 of the entries, repeated:

{"compound": "O=C(c1cccs1)N1CCCn2cnc(COCC3CC3)c2C1", "effect": 42.67}
{"compound": "[H][C@@]12CCCO[C@]1([H])[C@H](N(CC)CC)CN2S(=O)(=O)c1cn(C)cn1", "effect": 26.81}
{"compound": "Cc1cccc(NC(=O)CNC(=O)c2ccccc2F)c1", "effect": -11.93}
{"compound": "Cc1cccc2[nH]c(C3CCN(C(=O)c4c[nH]c(=O)[nH]c4=O)CC3)nc12", "effect": 22.52}